## Drug screen on melanoma cell lines: apoptosis marker

Data from the primary screen of doi:10.1371/journal.pone.0140310, rounded.

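The test systems are human melanoma cell lines, treated with a pair of drugs for 72 h and then stained and imaged. Values are the share of nuclei positive for cleaved PARP as a percentage of the same share in the DMSO control: 100 is the control level, higher means more apoptosis. Every drug was used at one fixed concentration, the higher of two screened. These are primary screening values without error estimates. Basal and induced levels differ widely between cell lines.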 An unselected part of the screen is shown. A dash means that no value is listed here.

Drug key:
bexarotene: C=C(c1ccc(C(=O)O)cc1)c1cc2c(cc1C)C(C)(C)CCC2(C)C at 10 µM
stibogluconate: O=C(O)[C@@H]1[O][Sb](=[O])([O][Sb]2(=[O])[O][C@H]([C@H](O)CO)[C@H](O)[C@H](C(=O)O)[O]2)[O][C@H]([C@H](O)CO)[C@@H]1O (some centres undefined) at 10 µM
Src-I1: COc1cc2ncnc(Nc3ccc(Oc4ccccc4)cc3)c2cc1OC at 10 µM
decitabine: Nc1ncn([C@H]2C[C@H](O)[C@@H](CO)O2)c(=O)n1 at 0.5 µM
CP-690550: C[C@@H]1CCN(C(=O)CC#N)C[C@@H]1N(C)c1ncnc2[nH]ccc12 at 5 µM
STA-4783: CN(NC(=O)CC(=O)NN(C)C(=S)c1ccccc1)C(=S)c1ccccc1 at 0.03 µM
fingolimod: CCCCCCCCc1ccc(CCC(N)(CO)CO)cc1 at 10 µM
AZD7762: NC(=O)Nc1cc(-c2cccc(F)c2)sc1C(=O)N[C@H]1CCCNC1 at 0.1 µM
T0901317: O=S(=O)(c1ccccc1)N(CC(F)(F)F)c1ccc(C(O)(C(F)(F)F)C(F)(F)F)cc1 at 7 µM

| Drugs | MZ2-MEL | WM1716 | WM115 | SK-MEL-2 | IPC-298 | 501mel | C32 | A375 | SK-MEL-5 | MeWo | MEL-HO | A2058 |
|---|---|---|---|---|---|---|---|---|---|---|---|---|
| Src-I1 + T0901317 | 56.1 | 97.2 | 146 | 132 | 266 | 355 | 206 | 75.6 | 232 | 81.5 | 57.2 | 122 |
| bexarotene + Src-I1 | 191 | 145 | 54.0 | 154 | 736 | 104 | 79.6 | 37.9 | 242 | 48.9 | 104 | 97.2 |
| fingolimod + bexarotene | 2680 | 9810 | 688 | 14000 | 448 | - | 686 | 95.4 | 282 | 584 | 4740 | 2080 |
| decitabine + AZD7762 | 226 | 494 | 240 | 67.3 | 244 | - | 91.6 | - | 482 | 452 | 319 | 952 |
| CP-690550 + fingolimod | 58.8 | 664 | 1970 | 1230 | 221 | - | 1180 | - | 38.4 | 733 | 3030 | 2040 |
| bexarotene + CP-690550 | - | 47.3 | 66.9 | - | 40.6 | - | 232 | - | 59.4 | 99.0 | 78.6 | 93.3 |
| Src-I1 + fingolimod | 5130 | 104 | 1090 | 3770 | 2030 | 10200 | 5220 | 170 | 127 | 1060 | 619 | 4020 |
| CP-690550 + stibogluconate | 71.6 | 18.6 | 52.6 | 103 | 54.8 | - | 80.6 | - | 131 | 41.6 | 58.0 | 81.5 |
| T0901317 + CP-690550 | 47.6 | 101 | 128 | 123 | 33.7 | 155 | 90.9 | 53.2 | 67.4 | 62.5 | 129 | 45.8 |
| CP-690550 + Src-I1 | 48.6 | 66.6 | 122 | 113 | 103 | 86.9 | 87.9 | 65.3 | 247 | 86.1 | 150 | 207 |
| STA-4783 + bexarotene | 93.0 | 69.6 | 2670 | 113 | 142 | - | 4100 | - | 240 | 822 | 39.6 | 1200 |
| Src-I1 + AZD7762 | 59.5 | 154 | 153 | 199 | 138 | 87.8 | 155 | 71.1 | 153 | 171 | 126 | 249 |
| T0901317 + stibogluconate | - | 33.1 | 46.9 | 33.5 | 93.4 | - | 80.9 | 179 | 143 | 97.7 | 78.1 | 119 |
| STA-4783 + decitabine | 107 | 90.1 | 251 | 16.5 | 205 | - | 163 | - | 279 | 137 | 341 | 142 |
| Src-I1 + stibogluconate | - | 59.6 | 284 | 103 | 199 | - | 83.8 | 56.3 | 299 | 85.7 | 81.1 | 64.6 |
| STA-4783 + CP-690550 | 89.5 | 240 | 1790 | 31.8 | 77.9 | - | 3000 | - | 87.0 | 2270 | 73.7 | 3630 |
| decitabine + bexarotene | - | 87.6 | 132 | 99.5 | 230 | - | 148 | 167 | 66.7 | 144 | 213 | 203 |
| decitabine + CP-690550 | 223 | 159 | 85.4 | 139 | 64.9 | - | 196 | - | 422 | 231 | 84.2 | 147 |
| bexarotene + T0901317 | 132 | 93.9 | 392 | 114 | 85.0 | 218 | 75.8 | 75.6 | 166 | 48.8 | 111 | 86.0 |
| AZD7762 + CP-690550 | 94.5 | 242 | 175 | 224 | 67.9 | - | 113 | - | 145 | 155 | 74.3 | 181 |
| stibogluconate + STA-4783 | 123 | 273 | 1180 | 49.0 | 84.8 | - | 2540 | - | 278 | 1410 | 145 | 2190 |
| STA-4783 + fingolimod | 4950 | 180 | 1610 | 6660 | 1450 | - | 719 | - | 1330 | 2890 | 612 | 2190 |
| Src-I1 + STA-4783 | 39.9 | 105 | 727 | 82.9 | 309 | 653 | 718 | 45.3 | 306 | 1120 | 65.2 | 4740 |
| decitabine + Src-I1 | 95.4 | 70.8 | 237 | 39.8 | 223 | 119 | 88.2 | 28.1 | 275 | 196 | 39.0 | 130 |
| bexarotene + AZD7762 | 1670 | 190 | 96.5 | 138 | 40.2 | - | 310 | - | 87.6 | 185 | 39.3 | 179 |
| STA-4783 + T0901317 | 29.5 | 103 | 1130 | 19.0 | 39.5 | 3190 | 5020 | 318 | 249 | 929 | 60.5 | 1580 |
| stibogluconate + AZD7762 | 141 | 563 | 155 | 268 | 110 | - | 1140 | - | 135 | 178 | 75.4 | 313 |
| decitabine + stibogluconate | - | 79.7 | 102 | 54.0 | 223 | - | 98.4 | 74.9 | 68.0 | 209 | 43.7 | 164 |
| T0901317 + decitabine | 147 | 114 | 72.8 | 113 | 358 | 73.8 | 88.1 | 97.8 | 126 | 273 | 54.7 | 217 |
| fingolimod + decitabine | 11200 | 225 | 5380 | 17900 | 284 | - | 1050 | 109 | 71.4 | 146 | 1490 | 2040 |
| AZD7762 + T0901317 | 126 | 122 | 313 | 182 | 103 | 364 | 114 | 267 | 153 | 209 | 54.9 | 248 |
| stibogluconate + bexarotene | 913 | 203 | 119 | 123 | 93.3 | - | 174 | 90.4 | 35.6 | 158 | 86.2 | 77.3 |

Repeated from the top, 2 entries:

| Drugs | MZ2-MEL | WM1716 | WM115 | SK-MEL-2 | IPC-298 | 501mel | C32 | A375 | SK-MEL-5 | MeWo | MEL-HO | A2058 |
|---|---|---|---|---|---|---|---|---|---|---|---|---|
| Src-I1 + T0901317 | 56.1 | 97.2 | 146 | 132 | 266 | 355 | 206 | 75.6 | 232 | 81.5 | 57.2 | 122 |
| bexarotene + Src-I1 | 191 | 145 | 54.0 | 154 | 736 | 104 | 79.6 | 37.9 | 242 | 48.9 | 104 | 97.2 |